PubChem BioAssay AID1159578 – Peter MacCallum Cancer Centre | 2015

- Screen: 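Genome-wide hunt for genes controlling movement of lymphatic endothelial cells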 (primary screen)
- Cells: human lymphatic endothelial cells
- Knock-down reagent: siRNA pool against human genes, 40 nM
- Timing: 48 h after transfection
- Read-out: 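High-content imaging of dye-stained cells in a scratch assay measures filled wound area and nuclei per well; duplicate means given as ratio to mock and robust z-score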
- Direction: migration robust z-score: higher = faster migration into the scratch; migration relative to mock: higher = more scratch area covered than mock; nuclei per well: higher = more cells in the well
- Hit rule: 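Migration changed when robust z exceeds 2 or falls below -2 and mean nuclei number is at least 3300; otherwise not called changed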
- Calls: active = migration changed; inactive = no migration change, or too few cells
The whole screen tested about 18,000 reagents; shown is a random part of them. In the full data, about 1,030 (5.7%) got an active call. 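Inactive calls also include pools with fewer than 3300 nuclei, whose migration was not assessed.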 Raw values vary from plate to plate and are shown uncorrected. Entries without a mark were called inactive.

gene knocked down	migration robust z-score	migration class with cell-count check	migration relative to mock	nuclei per well, duplicate mean
KRTAP1-3 (keratin associated protein 1-3)	0.16	migration z between -2 and 2; enough cells	0.92	5704
BET1L (Bet1 golgi vesicular membrane trafficking protein like)	-4.14	under 3300 nuclei; migration not judged	-0.19	2124
SUCLG2 (succinate-CoA ligase GDP-forming subunit beta)	0.96	migration z between -2 and 2; enough cells	0.99	5862
PLD2 (phospholipase D2)	0.49	migration z between -2 and 2; enough cells	0.9	6625
ZNF134 (zinc finger protein 134)	-1.62	migration z between -2 and 2; enough cells	0.46	5666
H6PD (hexose-6-phosphate dehydrogenase/glucose 1-dehydrogenase)	-0.98	migration z between -2 and 2; enough cells	0.63	5599
SLC14A1	0.99	migration z between -2 and 2; enough cells	1	6051
CHRNA10 (cholinergic receptor nicotinic alpha 10 subunit)	0.04	migration z between -2 and 2; enough cells	0.89	6309
IGDCC3 (immunoglobulin superfamily DCC subclass member 3)	-0.08	migration z between -2 and 2; enough cells	0.86	5799
PSD3 (pleckstrin and Sec7 domain containing 3)	0.9	migration z between -2 and 2; enough cells	1.13	4602
CAMKV (CaM kinase like vesicle associated)	-1.17	migration z between -2 and 2; enough cells	0.58	3388
MVK (mevalonate kinase)	-0.2	migration z between -2 and 2; enough cells	0.76	6228
CHL1 (cell adhesion molecule L1 like)	0.7	migration z between -2 and 2; enough cells	1.07	6879
DIMT1 (DIM1 rRNA methyltransferase and ribosome maturation factor)	0.8	migration z between -2 and 2; enough cells	0.96	6688
ASL (argininosuccinate lyase)	0.76	migration z between -2 and 2; enough cells	0.95	5788
POLR2L (RNA polymerase II, I and III subunit L)	-0.29	migration z between -2 and 2; enough cells	0.75	4805
BCKDK (branched chain keto acid dehydrogenase kinase)	0.62	migration z between -2 and 2; enough cells	0.92	4102
SULT2A1 (sulfotransferase family 2A member 1)	0.86	migration z between -2 and 2; enough cells	0.97	4821
GKN1 (gastrokine 1)	-1	migration z between -2 and 2; enough cells	0.62	3854
DEFB126 (defensin beta 126)	-1.77	migration z between -2 and 2; enough cells	0.42	4000
KRTAP5-5 (keratin associated protein 5-5)	0.1	migration z between -2 and 2; enough cells	0.91	5124
SCP2D1 (SCP2 sterol binding domain containing 1)	-0.02	migration z between -2 and 2; enough cells	0.88	4796
MRPL2 (mitochondrial ribosomal protein L2)	-3.51	under 3300 nuclei; migration not judged	-0.03	834

2 entries from above, sorted by “migration relative to mock”, lowest first.
gene knocked down	migration robust z-score	migration class with cell-count check	migration relative to mock	nuclei per well, duplicate mean
MVK (mevalonate kinase)	-0.2	migration z between -2 and 2; enough cells	0.76	6228
CHL1 (cell adhesion molecule L1 like)	0.7	migration z between -2 and 2; enough cells	1.07	6879
